The text below walks through data of US20220389394A1.

By UniProt entry, the sequences of proteins in these tests, tags left out. Where a name states a change or a piece, a line headed by the entry shows the natural chain unless it says otherwise. Chains listed by the source or under a name are the forms on record and can include a tag or linker. Residues count along the entry.
UniProt P12314, residues 16-288: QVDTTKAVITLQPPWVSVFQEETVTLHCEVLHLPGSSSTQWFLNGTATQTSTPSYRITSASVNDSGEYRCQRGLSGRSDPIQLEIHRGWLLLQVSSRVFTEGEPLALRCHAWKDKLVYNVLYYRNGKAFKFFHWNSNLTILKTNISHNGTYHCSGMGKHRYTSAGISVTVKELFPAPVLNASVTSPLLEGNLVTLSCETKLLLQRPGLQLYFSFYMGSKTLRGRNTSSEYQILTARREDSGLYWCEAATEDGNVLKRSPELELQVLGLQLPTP
biotinylated recombinant human FcγRIIIa (Val 176 variant) protein (Sino Biological) (P08637, form named): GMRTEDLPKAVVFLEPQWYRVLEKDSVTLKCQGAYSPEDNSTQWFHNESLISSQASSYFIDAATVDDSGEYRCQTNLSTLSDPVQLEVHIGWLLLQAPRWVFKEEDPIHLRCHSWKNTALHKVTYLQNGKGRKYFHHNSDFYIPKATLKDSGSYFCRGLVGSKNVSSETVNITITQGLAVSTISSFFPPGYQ

Experiment [1] concerns the target biotinylated recombinant human FcγRI protein (Sino Biological) (human) (UniProt P12314). Briefly: AlphaScreen competition with human IgG beads; text: none could fully compete with human IgG at the highest concentrations tested. On the technique in general: In Alpha technology, singlet oxygen from a donor bead excites a nearby acceptor bead.
Experiment [2] concerns the target biotinylated recombinant human FcγRIIIa (Val 176 variant) protein (Sino Biological) (human) (UniProt P08637). Briefly: AlphaScreen competition with human IgG beads; text: none could fully compete with human IgG.

These are yes or no findings as the source states them, for the method shown. Tags and fused reporters may be left off the sequences shown.

B1: human FLT3-ligand (Δ5 amino acid) human IgG4 (S228P/F234A/L235A/M252Y/S254T/T256E) fusion protein (SEQ ID NO:14) (Fc fusion)
chain: TQDCSFQHSPISSDFAVKIRELSDYLLQDYPVTVASNLQDEELCGGLWRLVLAQRWMERLKTVAGSKMQGLLERVNTEIHFVTKCAFQPPPSCLRFVQTNISRLLQETSEQLVALKPWITRQNFSRCLELQCQPDSSTLPPPWSPRPLEATAESKYGPPCPPCPAPEAAGGPSVFLFPPKPKDTLYITREPEVTCVVVDVSQEDPEVQFNWYVDGVEVHNAKTKPREEQFNSTYRVVSVLTVLHQDWLNGKEYKCKVSNKGLPSSIEKTISKAKGQPREPQVYTLPPSQEEMTKNQVSLTCLVKGFYPSDIAVEWESNGQPENNYKTTPPVLDSDGSFFLYSRLTVDKSRWQEGNVFSCSVMHEALHNHYTQKSLSLSLGK
With B1, the binding result in experiment [1] is “no binding (tested: 294 nM (highest of the titration))”; in experiment [2], “no binding (tested: 1176 nM (highest of the titration))”.
